According to PubChem BioAssay AID1347423 (Functional Genomics Laboratory (NCATS/FGL), 2020):
About 210 (0.4%) of roughly 52,000 sequences were called active.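 How the source made its calls: active means gene whose silencing raises cell survival under the drug, median off-target-corrected z-score across its silencing RNAs 2 or more; inactive means the rest.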 The list shows a part of the results.

experiment: Resistance to Poly (ADP-Ribose) Polymerase inhibitor: Gene Identification via Genome-wide siRNA Screen; conditions: mouse BRCA2 R2336H ES cells, olaparib, CellTiter-Glo viability; stronger effect = higher value
Procedure, shortened: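 Mouse BRCA2 R2336H ES cells were reverse-transfected with siRNA (20 nM final), treated at 48 h with 500 nM olaparib, and read by CellTiter-Glo after 72 h. Scores: MAD-based z per siRNA, median per gene, seed off-target correction.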

| Sequence | z-score |
| --- | --- |
| GCCAACUAUCUUUUCUUAGTT against Ppp1cb | inactive: -0.557 |
| GGUGUCUUUCUUCACUCUUTT against Olfr862 | inactive: 0.0823 |
| GGUUCAUGUGAACUUGCUGTT against Sesn2 | inactive: 0.535 |
| CCAUGACUAUUCUUACUUCTT against Olfr937 | inactive: -0.143 |
| CCUGAAUCUAGCCAUUCAATT against Olfr1080 | inactive: -0.135 |
| GGAGUGAAUGAAUGAAUGATT against Vsx1 | inactive: 0.17 |
| GGCUGAGUUUGGUAAGAGATT against Scly | inactive: 0.2 |
| GCAGCUCACUUUGGAUGACTT against Irf4 | inactive: 0.0967 |
| CCUUUGAUUCACAAUGGUUTT against Smad4 | inactive: 0.00533 |
| GUCUUAAAAUUCCUGCUCCTT against Mrgprg | inactive: -0.574 |
| CCCUGAAUAUAUGAAGAGCTT against Rhbdl | inactive: 0.564 |
| GCUAGAUUUCUACUGUGUCTT against 4930504E06Rik | inactive: -0.801 |
| GGAUGCUUGGCUCAAUUACTT against Olfr992 | inactive: 0.0618 |
| CCUCAACAAAUCAUCCUAATT against Rgs18 | inactive: 1.3 |
| CCUAUCCAGAUGUCAUUAATT against Hoxa11 | inactive: -1.27 |
| GGCCUUUCUAUAUAGAGCCTT against 9130023D20Rik | inactive: -0.611 |
| CGAACUUUUCAGCAGAUACTT against 2610304G08Rik | inactive: -0.533 |
| GCGCAGUUGCAAACCACACTT against Clec4g | inactive: -0.579 |
| GCAAGGUGUGGAAUGACCUTT against Snx8 | inactive: 0.233 |
| GCGACAUCUGGAAAAAUACTT against Atp2a1 | inactive: -1.47 |
| CCGCGUCUUGCUAUGGAAGTT against BC048937 | inactive: 1.59 |
| GCAAAUUAGGUUGUGAAUGTT against Gab1 | inactive: 0.188 |
| GGUGAUUCACAUACUUUAUTT against Vps54 | inactive: -1.18 |
| GGGACAAUGGCAAAAUAAATT against Serpinb11 | inactive: 0.644 |
| GCCUGAUGGGCACUUUGAATT against Socs6 | inactive: -0.588 |
| CCUUCGUAAUGACUGAGGATT against 4930543L23Rik | inactive: -0.4 |

| Sequence | z-score |
| --- | --- |
| GGGACUUCAACAGAUAUGUTT against Jmjd2b | inactive: 1.85 |
| GCGCACAAGCCUUACUAAATT against LOC434377 | inactive: 1.45 |
| GGACUUGAACAACUUACAATT against Plcb1 | inactive: -0.00133 |
| CGGUAUAUCCAAAUUUCUCTT against Art2a | inactive: 0.96 |
| GCACCAUCGCUUUGUUAUUTT against Hdlbp | inactive: -0.562 |
| GGAAGUUUGCUCCAGCCUUTT against Tmem33 | inactive: -0.951 |
| GCCUGACCGACUCAACUACTT against Dbh | inactive: -0.0788 |
| GGAUCAGUGCCUUUGGCUATT against Rhoc | inactive: -0.439 |
| GGACAAUGUGGAGAAGGAATT against BC048403 | inactive: -2.38 |
| CCAUAUCUCAUGAGGAAGGTT against Olfr1368 | inactive: -0.564 |
| GCAGAGUGUUUAAGUUUAUTT against Cftr | inactive: 0.883 |
| GGGCAGCUGCUAUUUAUUUTT against Fosl1 | inactive: 0.126 |
| GGCCUUGGAACAGAAUCCGTT against Sugt1 | inactive: 0.673 |
| GCGGGAAAUAGCUGACUUATT against Rabep1 | inactive: -1.09 |
| GCUCUCAUCGUCCCUGAAUTT against Cln8 | inactive: 0.142 |
| GGCUGCUGUAACGAUGAAGTT against Vegfa | inactive: -1.75 |
| GGCUGAGACCUUUUGGUUGTT against AI413631 | inactive: -0.0343 |
| AUCAAGGUUAUGCAUAACUTT against LOC382686 | inactive: 1.22 |
| CGUUAUCUCAGUGGAUACUTT against 5730444A13Rik | inactive: -2.61 |
| GGAUGAAGAGAAAAAUUGATT against Slc20a1 | active: 2.96 |
| CCGUGCCAAACUUCUUACUTT against 2610528J11Rik | inactive: 1.55 |
| GCUAAAAAGCCGAAUUCUATT against a | inactive: 0.522 |
| GCAUUUCUACUGGAUUGUGTT against Luc7l2 | inactive: -0.369 |
| GGUGCAUUCACGUAUUUACTT against Olfr144 | inactive: -2.41 |
| GGAACUCACGCACAUAUUUTT against Net1 | inactive: 0.027 |
| CCCGAACCUGUUGUCUGAATT against Ttc8 | inactive: -1.68 |

2 records picked at random from those above:

| Sequence | z-score |
| --- | --- |
| CCGUGCCAAACUUCUUACUTT against 2610528J11Rik | inactive: 1.55 |
| GCGCACAAGCCUUACUAAATT against LOC434377 | inactive: 1.45 |

The results go on:

| Sequence | z-score |
| --- | --- |
| GGCUCUUAUCAAGAAAUCUTT against Rai12 | inactive: 1.84 |
| GGAAAGAAGAAGAGGUGAGTT against Pecr | inactive: 0.31 |
| GGAGUCGUUUUCUGUUACUTT against Gemin5 | inactive: -1.69 |
| CGGAAUGCCAAAGAUGUGGTT against Sult1d1 | inactive: -0.254 |
| GGCAUAAACCACUUCCAGCTT against Dedd2 | inactive: 0.997 |
| CCAAAGUUAUUGCAUGCACTT against Kcna4 | inactive: -1.09 |
| GUAAAGGUCUUGAUAGCCUTT against Tcl1b2 | inactive: 0.64 |
| AGCUGACUGUAAAAAAACCTT against 1810014F10Rik | inactive: -0.342 |
| GGACCUAUGCGUUUCUGGUTT against 6330406I15Rik | inactive: 0.577 |
| GGACUCAGCAUCGUGAUACTT against Krtap15 | inactive: 0.424 |
| GGCACAAAAUGACUCCUAUTT against C330046G03Rik | inactive: -0.514 |
| GCGGUUUGUGUUGAUCUUGTT against Olfr768 | inactive: 1.35 |
| GGAACCAGAGGACAAAGACTT against 4921513E08Rik | inactive: 0.0214 |
| GCACUUACGCAGGCAUUUUTT against Apoc2 | inactive: 0.0219 |
| GGGAUUUUUUGUUGCCAUCTT against Pthr1 | inactive: -0.139 |
| GGUCUUAUCUUGAUUGAGGTT against E130016I23Rik | inactive: 1.53 |
| CCGUACUCUACCUCCACAATT against Flrt2 | inactive: -1 |
| GGCUAUGAGAAAUACACUCTT against Zfp35 | inactive: 0.444 |
| GGGUUCAUUUUUGGCUUUCTT against Serpina3m | inactive: 0.0224 |
| GGAAGCUUCUUCAGUACAATT against Rai14 | inactive: -0.0646 |
| GGUCAUCUGUGUUUACACGTT against AI837181 | inactive: -0.906 |
| GGUCUUCUUUGUGUUCGCUTT against Olfr283 | inactive: 0.468 |
| GACACUGAACAACGACAUUTT against Prss3 | inactive: 0.522 |
| AGUUAGCCUUGAGGAGAAUTT against Olfr1512 | inactive: -1.32 |
| CCAAGUUUUAGCACCUAAATT against Mitc1 | inactive: 1.31 |
| GGGAAAGGACAUUACCCAGTT against 4933409N07Rik | inactive: -1.27 |

| Sequence | z-score |
| --- | --- |
| GGUCCUGAAGAUACAUAUUTT against 4732460C16Rik | inactive: -1.51 |
| GGAUUCUUUACAGAAUCAATT against 1110064P04Rik | inactive: 1.85 |
| GGAGUAUUUCUACACCAGCTT against Ccl5 | inactive: 0.44 |
| GGAAAUAGAAACCUCAAGUTT against Sipa1l1 | inactive: -0.937 |
| CGCAAACAGGAUUGUUCUATT against Lgals3 | inactive: -1.61 |
| GGACCCAAGCCUAAAACCUTT against Cbx8 | inactive: 0.0315 |
| CCUGCGUAGAAAGAUGAUGTT against Tekt2 | inactive: 0.168 |
| CGGAUCUUGUCAAUAACCATT against Angptl1 | inactive: -0.131 |
| GCUCCUUAAACAGUAAUCATT against Adipor2 | inactive: 0.25 |
| GGUUCUGUACGCCACUUGCTT against Lass1 | inactive: 0.18 |
| GGCCCAACUGGAACAGUAUTT against C030019I05Rik | inactive: -1.65 |
| CCUCUUCAGAAGCUCUCCUTT against Olfr1320 | inactive: 1.27 |
| UGUAUUUUGUCAAUGUGGCTT against Olfr104 | inactive: -1.49 |
| GCAUUUGAUACCUUCACUGTT against Krtap16-5 | inactive: 0.973 |
| GCAAGAAUCGAUAUGAGAGTT against Lect1 | inactive: -0.886 |
| GCCGAUAUGAGGAUAGCGATT against Cckar | inactive: -1.52 |
| GGCCUUCACUACGAGGGAATT against Pfkl | inactive: 0.0423 |
| CGAAAUCAAGUUUACACUCTT against Mgea6 | inactive: 1.18 |
| CGACAAACUCACCUUGUCCTT against 1700094E07Rik | inactive: 0.399 |
| GCAUGAAGGCAAUAUUUCATT against BC021442 | inactive: -0.141 |
| GGAUGAAAUCAAAAUGGAUTT against Zfp622 | inactive: 1.45 |
| GGAUGCAGCUAACAAUUACTT against Tuba8 | inactive: 0.0077 |
| GCCGAUUUUAUCUUUGUCATT against Dpysl5 | inactive: -0.269 |
| GGAGUAUAAAAAGUUCAGATT against Ell3 | inactive: 0.15 |
| GCCUUUAUCUACCAUUACUTT against Zfp289 | inactive: -0.401 |
| GCUGCCUUUAAUGUGGCAATT against Tcl1 | inactive: 0.101 |

Rewritten with bars between the fields: part of the list above
Sequence | z-score
GGUUCAUGUGAACUUGCUGTT against Sesn2 | inactive: 0.535
CCAUGACUAUUCUUACUUCTT against Olfr937 | inactive: -0.143
CCUGAAUCUAGCCAUUCAATT against Olfr1080 | inactive: -0.135
GGAGUGAAUGAAUGAAUGATT against Vsx1 | inactive: 0.17
GGCUGAGUUUGGUAAGAGATT against Scly | inactive: 0.2
GCAGCUCACUUUGGAUGACTT against Irf4 | inactive: 0.0967
CCUUUGAUUCACAAUGGUUTT against Smad4 | inactive: 0.00533
GUCUUAAAAUUCCUGCUCCTT against Mrgprg | inactive: -0.574
CCCUGAAUAUAUGAAGAGCTT against Rhbdl | inactive: 0.564
GCUAGAUUUCUACUGUGUCTT against 4930504E06Rik | inactive: -0.801
GGAUGCUUGGCUCAAUUACTT against Olfr992 | inactive: 0.0618
CCUCAACAAAUCAUCCUAATT against Rgs18 | inactive: 1.3
CCUAUCCAGAUGUCAUUAATT against Hoxa11 | inactive: -1.27
GGCCUUUCUAUAUAGAGCCTT against 9130023D20Rik | inactive: -0.611
CGAACUUUUCAGCAGAUACTT against 2610304G08Rik | inactive: -0.533
GCGCAGUUGCAAACCACACTT against Clec4g | inactive: -0.579
GCAAGGUGUGGAAUGACCUTT against Snx8 | inactive: 0.233
GCGACAUCUGGAAAAAUACTT against Atp2a1 | inactive: -1.47
CCGCGUCUUGCUAUGGAAGTT against BC048937 | inactive: 1.59
GCAAAUUAGGUUGUGAAUGTT against Gab1 | inactive: 0.188
GGUGAUUCACAUACUUUAUTT against Vps54 | inactive: -1.18
GGGACAAUGGCAAAAUAAATT against Serpinb11 | inactive: 0.644
GCCUGAUGGGCACUUUGAATT against Socs6 | inactive: -0.588
CCUUCGUAAUGACUGAGGATT against 4930543L23Rik | inactive: -0.4
GGGACUUCAACAGAUAUGUTT against Jmjd2b | inactive: 1.85
GCGCACAAGCCUUACUAAATT against LOC434377 | inactive: 1.45
GGACUUGAACAACUUACAATT against Plcb1 | inactive: -0.00133
CGGUAUAUCCAAAUUUCUCTT against Art2a | inactive: 0.96
GCACCAUCGCUUUGUUAUUTT against Hdlbp | inactive: -0.562
